Measurements: paper PMC7269032, “Chiral 4-O-acylterpineol as transdermal permeation enhancers: insights of the enhancement mechanisms of a transdermal enantioselective delivery system for flurbiprofen” (Drug Delivery, 2020)

Test: ATR-FTIR of stratum corneum after treatment with enhancer
Parameters: species or system rabbit
Settings: 5% (w/v) enhancer solution 20 μL, 30 min
Description: The shaved back was divided into 21 areas (each area in 1 cm^2) and randomly divided into seven groups (n = 3). The marked areas were applied with 5% (w/v) enhancer solution of 20 μL. They were administered as follows: (1) control group only the absolute ethanol; (2) group A with d-4-TER; (3) group B with l-4-TER; (4) group C with d-4-T-C14; (5) group D with l-4-T-C14; (6) group E with d-4-T- dC18; and (7) group F with l-4-T-dC18. After the enhancer was infiltrated of 30 min, the skin of the penetrated area was peeled off. Then the residual solution was blotted up and dried of 15 min. Finally, the treated skin was placed on the surface of zinc selenide (ZnSe) with an incidence angle of 45° and detected by ATR-FTIR spectroscopy (Thermo Nicolet NEXUS 470, Madison, USA). The stratum corneum was scanned 200 times in the detection wavelength range of 1000–4000 cm^−1 at a resolution of 2 cm^−1. Infrared absorption peaks were analyzed using Oringe 7.0.

Row | Structure (SMILES) | OH vibration peak position of SC lipids after treatment (control 3271.08 cm^−1) [cm⁻¹] | shift of OH stretching vibration peak position vs control
1 | CCCCCCCCCCCCCC(=O)OC1(C(C)C)CC=C(C)CC1 (stereo not drawn) [l-4-T-C14, l-4-methyl-1-(1-methylethyl)-3-cyclohexen-1-yl tetradecanoate] | 3275.90 | –
2 | CCCCCCCCC=CCCCCCCCC(=O)OC1(C(C)C)CC=C(C)CC1 (stereo not drawn) [l-4-T-dC18, l-4-methyl-1-(1-methylethyl)-3-cyclohexen-1-yl octadec-9-enoate] | – | shifted to a lower wavenumber
